Results published in patent US8822216B2, “DNA regulatory element for the expression of transgenes in neurons of a subject and uses thereof” (priority 1997, dated 2014).
At least one compound was matched to its structure with a doubt left.

Key:
calcineurin = assay: Phosphatase assay in hippocampal extracts; type: biochemical, mouse
Procedure: Phosphatase assays were performed according to Hubbard and Klee (1991). Briefly, mice were injected with 5 ml/kg of pentobarbital and decapitated. Hippocampi were dissected out, homogenized in 2 mM EDTA (pH 8), 250 mM sucrose, 0.1% Bmercaptoethanol and centrifuged. Supernatants were diluted in 40 mM Tris-HCl (pH 8), 0.1M NaCl, 0.04 mg/ml bovine serum albumin, 1 mM DTT, […] (Buffer 1) and incubated at 30° C. for 1 min in Buffer 1 containing 1 mM of the peptide [γ^32P]-RII subunit of cyclic AMP-dependent protein kinase (PKA) and either 0.1 mM calmodulin (Sigma) and 0.66 mM Ca^2+ or 0.33 mM EGTA (pH 7.5). The peptide ^97[Ala]-RII (Peninsula Labs) was labeled with 0.3 roM [γ^32P]ATP (NEN) using 4 mg catalytic subunit of PKA (Fluka). The reaction was stopped with 5% TCA in 0.1 M KH2P04 and the enzyme activity was calculated as previously described (Klee et al., 1983) and is expressed in nmol Pi release/min/mg protein. The protein concentration was determined using the bicinchroninic acid protein assay kit (Sigma). All samples were performed in triplicate.
Phosphatase assays were performed as described in Winder et al., 1997. Briefly, mice were injected with 5 ml/kg of pentobarbital and decapitated. Hippocampi were dissected out, homogenized in 2 mM EDTA (pH 8), 250 mM sucrose, 0.1 k β-mercaptoethanol. Supernatants were incubated at 30° C. for 1 min in presence of the […] [Ala97]-RII peptide and either 0.1 mM calmodulin and 0.66 mM Ca^2+ or 0.33 mM EGTA. The reaction was stopped and the enzyme activity calculated previously as described (Klee et al., 1983; 1987). The activity was expressed in nmol Pi released/min/mg protein. The protein concentration was determined using the bicinchroninic acid protein assay kit (Sigma). All samples were performed in triplicate.

calcineurin transgene = assay: Calcineurin transgene mRNA in Tet-CN279 and Tet-CN273 mice (RT-PCR, in situ hybridization); type: in vivo, mouse
B22 transgenic mice = assay: Barnes circular maze, spatial memory, CaMKII-Asp286 transgenic mice; type: in vivo, mouse; conditions: CaMKII-Asp286 expressed with tTA system; transgene suppressed by doxycycline
[1] = test system: Schaffer collateral LTP in CA1 of hippocampal slices; assay: 10-Hz LTP in CA1 of hippocampal slices (field EPSP slope); type: cell-based, mouse; conditions: CaMKII-Asp286 expressed with tTA system; transgene suppressed by doxycycline
CaMKII-Asp286 transgene = assay: RT-PCR Southern blot of CaMKII-Asp286 expression from the tet-O promoter in forebrain RNA; type: in vivo, mouse; conditions: double transgenic mice; doxycycline 2 mg/ml in drinking water for 4 weeks
B21 transgenic mice = assay: Fear conditioning (context and cued), B21 transgenic mice; type: in vivo, mouse; conditions: doxycycline for 4 weeks before training
CaMKII = CaMKII enzyme activity in striatum of B21 double transgenic mice on doxycycline; type: in vivo, mouse; conditions: doxycycline 1 mg/ml
Procedure: In double transgenic mice, a high level of expression of the CaMKII-Asp mRNA was obtained (FIGS. 5B and 7A-D). To determine the effect of this expression on enzyme activity. CaMKII activity was measured in the striatum of the B21 line of mice (Table 1).
Brains were removed and the striatum was dissected and immediately homogenized in 20 mM tris-HCl (pH 7.5), 0.5 mM EGTA, 0.5 mM EDTA, 2 mM leupeptin, 0.4 mM dithiothreitol, 0.1 mM phenylmethysulfonyl flouride, 0.4 mM molybdate, and 10 mM sodium pyrophosphate. CaMKII enzyme activity was determined as described (Mayford et al., 1995). B21+Dox animals received doxycycline (1 mg/ml) plus 5% sucrose in the drinking water for 3 to 5 weeks. B21+Dox withdrawal animals received doxycycline (1 mg/ml) for 3 to 5 weeks and were then switched to normal water for 6 weeks. The number of mice is given in parentheses.

[2] = Tet-CN279 and Tet-CN273 mutant mice, doxycycline for at least one week

C[C@H]1c2cccc(O)c2C(=O)C2=C(O)[C@]3(O)C(=O)C(C(N)=O)=C(O)[C@@H](N(C)C)[C@@H]3[C@@H](O)[C@@H]21 [doxycycline]
phosphatase enzyme activity in hippocampal extracts (calcineurin; Tet-CN273 mutant on dox.): 4.23±0.36 nmol Pi/min/mg
phosphatase activity (calcineurin; [2]): suppressed to wild-type levels
phosphatase enzyme activity in hippocampal extracts (calcineurin; Tet-CN279 mutant on dox.): 3.95±0.48 nmol Pi/min/mg
transgene mRNA by RT-PCR (calcineurin transgene; [2]): dramatically reduced
transgene mRNA by in situ hybridization (calcineurin transgene; mutant mice, 1 mg/ml doxycycline for at least one week): no signal
memory impairment in the spatial memory task (Barnes maze) (B22 transgenic mice): completely reversed
deficit in theta-frequency LTP in the hippocampus [1]: reversed
expression of the CaMKII-Asp286 transgene (CaMKII-Asp286 transgene): completely suppressed
learning impairment in context and cued fear conditioning (B21 transgenic mice): reversed
CaMKII activity in B21 mice treated with doxycycline (CaMKII): suppressed to wild-type values
